No constants are given. Whether binding was seen depends on the method and setting. In cells and extracts the contact can be indirect. Some entries that bind do so weakly or less than the wild type.

Amino acid sequences for entries named in this document (tags omitted).
UniProt Q16665: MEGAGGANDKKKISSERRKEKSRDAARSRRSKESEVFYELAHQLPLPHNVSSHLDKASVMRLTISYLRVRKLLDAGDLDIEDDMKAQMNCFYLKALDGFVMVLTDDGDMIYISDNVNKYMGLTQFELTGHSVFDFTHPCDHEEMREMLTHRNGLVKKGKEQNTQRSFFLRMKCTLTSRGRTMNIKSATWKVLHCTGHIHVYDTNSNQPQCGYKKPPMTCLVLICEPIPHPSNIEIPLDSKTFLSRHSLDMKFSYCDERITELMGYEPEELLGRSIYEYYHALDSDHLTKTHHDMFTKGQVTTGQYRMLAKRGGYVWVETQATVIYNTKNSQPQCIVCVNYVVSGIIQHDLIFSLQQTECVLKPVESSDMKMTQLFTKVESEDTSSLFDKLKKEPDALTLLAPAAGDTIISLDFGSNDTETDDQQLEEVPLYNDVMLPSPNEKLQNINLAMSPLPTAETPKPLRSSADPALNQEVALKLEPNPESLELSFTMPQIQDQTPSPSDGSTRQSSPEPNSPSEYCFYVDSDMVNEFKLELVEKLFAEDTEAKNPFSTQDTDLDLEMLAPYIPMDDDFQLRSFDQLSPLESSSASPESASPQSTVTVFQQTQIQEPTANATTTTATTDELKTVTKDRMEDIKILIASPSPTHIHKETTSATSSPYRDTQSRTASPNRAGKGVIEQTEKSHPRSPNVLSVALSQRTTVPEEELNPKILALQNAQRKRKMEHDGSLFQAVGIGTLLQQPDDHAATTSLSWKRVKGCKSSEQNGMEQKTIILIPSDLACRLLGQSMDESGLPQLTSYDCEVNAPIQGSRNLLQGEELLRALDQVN
UniProt P14618: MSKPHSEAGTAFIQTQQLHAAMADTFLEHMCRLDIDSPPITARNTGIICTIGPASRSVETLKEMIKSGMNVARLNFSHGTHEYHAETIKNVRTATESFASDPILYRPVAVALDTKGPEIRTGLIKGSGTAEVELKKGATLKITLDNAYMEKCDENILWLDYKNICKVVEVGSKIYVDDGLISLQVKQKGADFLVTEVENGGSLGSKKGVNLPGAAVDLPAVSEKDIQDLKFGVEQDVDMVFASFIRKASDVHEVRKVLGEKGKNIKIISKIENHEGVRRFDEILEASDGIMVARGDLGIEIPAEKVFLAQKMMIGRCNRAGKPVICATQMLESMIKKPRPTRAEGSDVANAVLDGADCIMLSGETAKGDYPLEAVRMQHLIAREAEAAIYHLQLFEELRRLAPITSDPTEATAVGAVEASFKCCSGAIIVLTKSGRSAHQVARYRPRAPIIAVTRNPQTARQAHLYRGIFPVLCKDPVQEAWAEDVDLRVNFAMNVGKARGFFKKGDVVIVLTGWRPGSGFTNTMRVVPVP

The target in the assay is HIF-1α (human (endogenous in gastric cancer cell lines)) (UniProt Q16665). Put plainly: co-IP; lysates of gastric cancer cells; supernatants precipitated with rabbit IgG or HIF-1α-specific polyclonal antibody overnight at 4°C, protein A/G beads 12 h at 4°C, four washes, SDS-PAGE.

Take “PKM2 (from UniProt P14618 1-531) (enzyme)”: the binding result is listed as “binds”.

For the origin of these results see PMC8675178.
